PubChem BioAssay AID504793, Drosophila RNAi Screening Center | 2011
The screen tested about 23,000 reagents; shown is a random part of those with a known target gene and a result. Of all reagents, 62 (0.27%) are marked active. 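Calls come from follow-up tests whose scores are not deposited, so confirmed genes may have low counts here; counts are not normalised per plate.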 Raw values are not corrected between plates. A plus sign joins genes that one reagent is predicted to hit.

Screen: 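Knock-downs allowing continued mitosis even though DNA is damaged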 (primary screen)
System: Drosophila S2R+ cells
Knock-down reagent: long dsRNA against Drosophila genes, about 0.25 µg dsRNA per well
Timing: 4 days of dsRNA, then 4 hours of drug before read-out
Treatment: doxorubicin 0.5 µM for 4 hours to cause double-strand breaks, in cells also given a low, harmless dose of dsRNA against nbs to sensitise the assay
Detection: 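Per-well count of mitotic cells stained for phospho-histone H3 after doxorubicin exposure, used as mitotic index; counts are raw and not normalised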
Reading the numbers: mitotic cells: higher = more cells in mitosis, weaker G2 arrest
Active means: 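a call needs confirmation in secondary tests, with other dsRNAs and a check of mitotic timing without damage, not just a high primary count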
Calls: active = confirmed in follow-up tests; inactive = not confirmed

The opening 12 entries as a preview:
gene knocked down | dsRNA | mitotic cells, replicate 1 | mitotic cells, replicate 2 | activity call
Cpr47Ea | DRSC07333 | 9 | – | inactive
CG6230 | DRSC01989 | 5 | – | inactive
CG1440 | DRSC17915 | 10 | – | inactive
clu | DRSC07181 | 6 | – | inactive
clu | DRSC29278 | 8 | – | inactive
CG6180 | DRSC02937 | 2 | – | inactive
CG6180 | DRSC25726 | 6 | – | inactive
ncd | DRSC17012 | 2 | – | inactive
RpLP1 | DRSC00783 | 5 | – | inactive
RpLP1 | DRSC22145 | 14 | – | inactive
RpLP1 | DRSC23411 | 5 | – | inactive
kar | DRSC14496 | 6 | – | inactive

Main list, repeating the preview:
gene knocked down | dsRNA | mitotic cells, replicate 1 | mitotic cells, replicate 2 | activity call
Cpr47Ea | DRSC07333 | 9 | – | inactive
CG6230 | DRSC01989 | 5 | – | inactive
CG1440 | DRSC17915 | 10 | – | inactive
clu | DRSC07181 | 6 | – | inactive
clu | DRSC29278 | 8 | – | inactive
CG6180 | DRSC02937 | 2 | – | inactive
CG6180 | DRSC25726 | 6 | – | inactive
ncd | DRSC17012 | 2 | – | inactive
RpLP1 | DRSC00783 | 5 | – | inactive
RpLP1 | DRSC22145 | 14 | – | inactive
RpLP1 | DRSC23411 | 5 | – | inactive
kar | DRSC14496 | 6 | – | inactive
Klp3A | DRSC18676 | 5 | – | inactive
Klp3A | DRSC21625 | 8 | – | inactive
CG14280 | DRSC14761 | 7 | – | inactive
GNBP1 | DRSC11169 | 4 | – | inactive
GNBP1 | DRSC21836 | 14 | – | inactive
Nopp140 | DRSC11872 | 5 | – | inactive
Nopp140 | DRSC24599 | 5 | – | inactive
CG13455 | DRSC10002 | 8 | – | inactive
CG33225 | DRSC03881 | 24 | – | inactive
Sodh2 | DRSC16865 | 5 | – | inactive
CG5989 | DRSC10565 | 2 | – | inactive
Cdc27 | DRSC11112 | 298 | – | inactive
Cdc27 | DRSC23438 | 164 | – | inactive
CG17283 | DRSC15219 | 11 | – | inactive
Cyp6a9 | DRSC07385 | 4 | – | inactive
Elys | DRSC19571 | 6 | 3 | inactive
TotZ | DRSC13450 | 21 | – | inactive
CG5885 | DRSC02910 | 5 | – | inactive
CG5885 | DRSC28761 | 4 | – | inactive
CG18190 | DRSC06714 | 7 | – | inactive
CG18190 | DRSC27920 | 7 | – | inactive
Gbp3 | DRSC15206 | 7 | – | inactive
CG3257 | DRSC04351 | 7 | – | inactive
CG3257 | DRSC27446 | 8 | – | inactive
CG2217 + CG42740 | DRSC14141 | 5 | – | inactive
Nelf-A | DRSC15903 | 9 | – | inactive
Actbeta | DRSC17185 | 35 | – | inactive
Actbeta | DRSC17217 | 10 | – | inactive
CG17145 | DRSC10247 | 3 | – | inactive
SdhAL | DRSC10539 | 2 | – | inactive
CG7236 | DRSC03037 | 3 | – | inactive
CG7236 | DRSC26976 | 2 | – | inactive
Obp59a | DRSC04160 | – | – | inactive
CG10140 | DRSC09704 | 7 | – | inactive
CG10140 | DRSC26220 | 2 | – | inactive
Andorra | DRSC19475 | 5 | – | inactive
mspo | DRSC07652 | 10 | – | inactive
mspo | DRSC28194 | 7 | – | inactive
Rpn8 | DRSC04624 | 37 | – | inactive
Rpn8 | DRSC29897 | 41 | – | inactive
Graf | DRSC20131 | 6 | – | inactive
l(2)37Cd | DRSC02069 | 4 | – | inactive
ND6 (retired record) | DRSC21271 | 12 | – | inactive
Vps37B | DRSC12165 | 4 | – | inactive
Jon44E | DRSC07216 | 11 | – | inactive
Jon44E | DRSC25190 | 4 | – | inactive
Gr23a | DRSC27488 | 4 | – | inactive
ProRS-m | DRSC08261 | 1 | – | inactive
ProRS-m | DRSC30008 | 3 | – | inactive
beg | DRSC10923 | 6 | – | inactive
CG15743 | DRSC19709 | 8 | – | inactive
CG15743 | DRSC26389 | 5 | – | inactive
Vlet | DRSC19845 | 7 | – | inactive
Vlet | DRSC26731 | 8 | – | inactive
Cyp305a1 | DRSC11126 | 8 | – | inactive
CG31544 (retired record) | DRSC12466 | 13 | – | inactive
spn-A | DRSC16812 | 11 | – | inactive
CG5877 | DRSC19963 | 5 | – | inactive
CG5877 | DRSC28413 | 6 | – | inactive
scro | DRSC17102 | 11 | – | inactive
mRpS16 | DRSC07152 | 9 | – | inactive
Taf12L | DRSC00467 | 2 | – | inactive
etaTry | DRSC07613 | 2 | – | inactive
etaTry | DRSC28998 | 3 | – | inactive
Ranbp21 | DRSC19447 | 5 | 2 | inactive
CG10068 | DRSC12508 | 9 | – | inactive
Orc1 | DRSC07496 | 12 | – | inactive
CG2269 | DRSC06833 | 7 | – | inactive
sbr | DRSC19770 | 5 | – | inactive
sbr | DRSC20368 | 21 | – | inactive
sbr | DRSC29803 | 7 | – | inactive
Grl36a | DRSC21748 | 10 | – | inactive
Nse4 | DRSC02239 | 8 | – | inactive
Nse4 | DRSC28337 | 6 | – | inactive
CG8064 | DRSC16373 | 8 | – | inactive
Dfd | DRSC12593 | 7 | – | inactive
Dfd | DRSC27981 | 8 | – | inactive
betaNACtes6 + betaNACtes3 | DRSC27147 | 8 | – | inactive
Nca | DRSC11233 | 11 | – | inactive
CG17025 (retired record) | DRSC28651 | 3 | – | inactive
Achl | DRSC06665 | 11 | – | inactive
Achl | DRSC29366 | 4 | – | inactive
CG31259 | DRSC14366 | 5 | – | inactive
Best3 | DRSC09880 | – | – | inactive
CG10384 | DRSC03933 | 5 | – | inactive
CG10384 | DRSC28924 | 7 | – | inactive
YL-1 | DRSC02765 | 2 | – | inactive
YL-1 | DRSC23798 | 14 | – | inactive
Tsp42Ek | DRSC06187 | 5 | – | inactive
Rme-8 | DRSC07054 | 4 | – | inactive
CG8152 | DRSC07083 | 9 | – | inactive
Spn28Db | DRSC22033 | 9 | – | inactive
CG11619 | DRSC09849 | 5 | – | inactive
CG32694 | DRSC17844 | 9 | – | inactive
CG32694 | DRSC17855 | 4 | – | inactive
CG32694 | DRSC22670 | 9 | – | inactive
CG32694 | DRSC25731 | 4 | – | inactive
CG13829 | DRSC14679 | 10 | – | inactive
